Laboratory results from PubChem BioAssay AID901 (National Center for Advancing Translational Sciences (NCATS), 2007).
This is one part of the list. Shown are side measurements of this screen, not its main read-out; they come without a call. Compounds called inactive in the main read-out are mostly missing here. The note in brackets gives the kind of curve behind each potency; many fits are weak.

test: qHTS Assay for Identifying the Cell-Membrane Permeable IMPase Inhibitors; settings: CHO-M1 cells, IP1 accumulation, HTRF TR-FRET ratio; measured here: donor channel 620 nm AC50
Description: NCGC IMPase Assay Overview
Lithium has been widely used for the treatment of bipolar disorder. But lithium has a narrow therapeutic index and it can cause side effects such as thirst, weight gain, tremor, polyuria and memory problems. Although the mechanism for lithium action in treatment of bipolar disorder is still not fully understood, inhibition of inositol monophosphatase (IMPase) and the subsequent depletion of the inositol pool in living cells have been implicated as the primary therapeutic benefit of lithium therapy. Therefore, a selective IMPase inhibitor with reduced side effects might be a good drug candidate to replace lithium for the treatment of bipolar disorder. Several IMPase inhibitors have been discovered previously. However, they are not suitable for therapeutic use because of their poor cell membrane penetrability or oral bioavailability; the development of new cell-permeable IMPase inhibitors is needed.
IMPase catalyzes the hydrolysis of inositol-1-phosphate (IP1) to release free inositol. Binding of an agonist to a Gq coupled GPCR results in the activation of PLC, which hydrolyzes the PIP2 to form inositol-1,4,5-trisphosphate (IP3) and diacyl glycerol (DAG). While DAG activates protein kinase C (PKC), IP3 triggers the elevation of intracellular free Ca2+. The IP3 is very rapidly inactivated by hydrolysis to IP2, IP1 and then inositol by a series of enzymes including IMPase. Free inositols are used for synthesis of PI and thus start another inositol cycle.
To identify new cell-permeable IMPase inhibitors, we developed a cell-based IMPase assay in which the cytosolic IP1 is measured by a time-resolved fluorescence resonance energy transfer (TR-FRET) assay. In this assay, an IP1 specific antibody is used to detect the labeled IP1 tracer. When the cell lysate contains the elevated IP1 due to the inhibition of IMPase, the TR-FRET between the labeled antibody and IP1 tracer is disrupted resulting in a reduction in the total signal. Since the TR-FRET is used, this cell-based assay is a homogenous assay without cell wash and medium change that is suitable for assay miniaturization and HTS.
NCGC IMPase Assay Protocol Summary
A Chinese hamster ovary (CHO) cell line stably expressing the M1 receptor (CHO-M1) was obtained from ATCC and maintained in F-12 Kaighn's media (Invitrogen, Carlsbad, CA, 21127) supplemented with 10 % FBS, 100 units/ml penicillin, 100 ug/ml streptomycin and 250 ug/ml geneticin at 37C, 5% CO2 in a humidified atmosphere. Before the assay, aliquots of cells were frozen and stored at -135C. The assay was performed in 1536-well format. Data are reported for both the ratio of the two emission wavelengths, and also for the component 'donor' channel, Em2=620. […] AC50 values were determined from concentration-response data modeled with the standard Hill equation.
IMPase 1536-well assay protocol:
(1) Plate 4 ul/well (2000 cells) of cell suspension from frozen CHO-M1 Cells in white, tissue culture treated 1536-well plates that are cultured at 37C, 5 % CO2 for 16 to 30 hours.
(2) Add 23 nl/well of compound in DMSO solution. The final titration for each compound was between 0.6 nM and 46 uM.
(3) Add 1 ul of carbachol (50 uM in stimulation buffer containing10mM HEPES, 1mM CaCl2, 0.5 mM MgCl2, 4.2 mM KCl, 146 mM NaCl, 5.5 mM glucose, 50mM LiCl, pH 7.4.
(4) Incubation at 37C, 5 % CO2 for 30 min.
(5) Add 1 ul/well of d2-conjugated IP1 (d2-IP1) and 1 ul/well of Eu+ cryptate conjugated anti-IP1 antibody (Eu+-Ab) prepared in the cell lysis buffer, both from the IP-One kit (Cisbio, MA).
(6) Incubate at room temperature for 10 minutes.
(7) Detect the assay plate (Ex = 320, Em1 =665 and Em2 620) in a ViewLux plate reader.
inositol monophosphatase, IMPase, IMPase inhibitor, lithium, bipolar disorder, IP-One, HTRF, qHTS, NIH roadmap, NCGC
Note: In the gene ID and protein GI references for this assay, rat IMPase is referenced instead of hampster as hamster accession numbers were not available.

Compound	AC50
N#CC(C(=O)C12CC3CC(CC(C3)C1)C2)c1nc2ccccc2[nH]1 (stereo not given)	631 nM [rising, partial curve, poor fit]
COc1ccc2c(c1)/C(=C/c1cnc[nH]1)C(=O)N2	12600 nM [falling, single point]
CCCN(CCC)CCc1ccc(O)c(O)c1	31.6 nM [falling, full curve, poor fit]
Cc1ccc(OCC(=O)N2CCN(CC3CC4C=CC3C4)CC2)cc1 (stereo not given)	20000 nM [rising, single point]
O=C(C1CCC(=O)N1C1CCCCC1)N1CCC2(CC1)OCCO2 (stereo not given)	316 nM [rising, partial curve, poor fit]
CCN(CC)CCCN=Cc1c(O)n(Cc2ccc(F)cc2)c(=O)[nH]c1=O	15.8 nM [rising, full curve, poor fit]
O=c1[nH]c(=O)n([C@H]2C[C@H](O)[C@H](CO)O2)cc1/C=C\Br	5010 nM [rising, single point]
O=C(Nc1ccc2c(c1)OCO2)c1cn(Cc2ccc(F)cc2)nn1	12600 nM [rising, single point]
Fc1ccc(C2=CCN(C(c3cccs3)c3nnnn3CCc3ccccc3)CC2)cc1 (stereo not given)	31600 nM [rising, single point]
O=c1[nH]c(=O)n(Cc2ccco2)c(O)c1C=NCc1cccs1	3160 nM [rising, single point]
Cc1ccccc1NC(=O)c1c(NC(=O)c2ccccc2F)sc2c1CCC(C)C2 (stereo not given)	1780 nM [falling, partial curve, poor fit]
O=c1c2ccccc2nc(CSc2ncnc3nc[nH]c23)n1-c1ccccc1	25100 nM [rising, single point]
CCCn1nnc(NC(=O)COc2ccc(CC)cc2)n1	20 nM [falling, full curve]
COc1ccc(OCC(=O)N2CCN(C(C)C)CC2)cc1	5620 nM [rising, single point]
CCOc1ccc(Cn2c(=O)oc3ccc(C)cc32)cc1OC	25.1 nM [rising, full curve, poor fit]
CC(C)C(=O)c1cn(Cc2ccc(C#N)cc2)c2ccccc12	12600 nM [falling, single point]
CCOc1ccc(C2SCC(=O)Nc3c2c(=O)[nH]n3C2CCCCCC2)cc1 (stereo not given)	12.6 nM [falling, full curve]
COc1cc(/C=C2\C(=O)NC(=O)N(c3ccccc3)C2=O)cc(OC)c1O	3160 nM [falling, partial curve, poor fit]
CC(=O)N1CCN(c2ccc(N=Cc3c(O)n(Cc4ccccc4)c(=O)[nH]c3=O)cc2)CC1	251 nM [falling, full curve]
COc1ccccc1CN1CCN(C(=O)Cc2ccccc2)CC1	31.6 nM [rising, full curve, poor fit]
O=c1c2ccccc2nc(CSc2ncnc3nc[nH]c23)n1-c1ccccc1Cl	31600 nM [falling, single point]
Cc1ccc(C)c(C2(O)CC(C)N(C)CC2C)c1 (stereo not given)	794 nM [rising, full curve]

Compound	AC50
Oc1ccc(CC2CC3CCN2CC3)cc1O (stereo not given)	5.01 nM [falling, full curve, poor fit]
CC(C)(C)c1ccc(O)c(CN2CCN(c3ccccc3)CC2)c1	31600 nM [rising, single point]
c1ccc(-c2nnc(SCc3nc4ccccc4[nH]3)o2)cc1	3160 nM [falling, full curve, poor fit]
CCCCCn1c(=O)c(C(=O)Nc2c(C)n(C)n(-c3ccccc3)c2=O)c(O)c2ccccc21	6310 nM [rising, single point]
CC1(C)N(O)C(c2ccc(C(=O)O)cc2)=[N+]([O-])C1(C)C	2 nM [falling, full curve, poor fit]
COc1ccc(CCNC(=O)COC(=O)Cc2ccccc2)cc1	10000 nM [rising, single point]
O=C(CN1CCOCC1)c1ccc2cc[nH]c2c1	7080 nM [falling, partial curve, poor fit]
CCCc1[nH]nc2c1C1(C(=O)N(CC(N)=O)c3ccccc31)C(C(=O)OC)=C(N)O2 (stereo not given)	3.98 nM [rising, full curve, poor fit]
CCN(CC)Cc1c[nH]c2ccccc12	15800 nM [falling, single point]
CC[C@@]1(O)C(=O)OCc2c1cc1n(c2=O)Cc2cc3ccccc3nc2-1	316 nM [rising, full curve, poor fit]
Cn1cc(CCC(=O)N2CCC3(CC2)OCCO3)c2ccccc21	39800 nM [falling, partial curve, poor fit]
CCOc1ccc(N2C(=O)c3ccccc3C2=O)cc1	100 nM [falling, partial curve, poor fit]
CC(=NCCCO)c1c(O)n(Cc2ccccc2)c(=O)[nH]c1=O	1000 nM [falling, full curve]
COc1ccc(P2(=O)Nc3ccccc3N2)cc1	3980 nM [falling, single point]
CC(=O)Nc1ccccc1OP1(=O)COc2ccccc2OC1	1260 nM [falling, single point]
Cc1cc(Cl)ccc1OCC(=O)O	79.4 nM [rising, full curve, poor fit]
CN(C)C(=O)Oc1ccc(C(=O)c2ccccc2)cc1	3980 nM [falling, single point]
C[N+]1(C)[C@@H]2CC[C@H]1CC(OC(=O)[C@@H](CO)c1ccccc1)C2 (stereo not given in full)	10 nM [falling, full curve, poor fit]
CN(C)P1(N(C)C)=Nc2c(c(N)nn2C)C(c2ccccc2)=N1	631 nM [falling, single point]
COc1ccc2c(c1)c(C(=O)CN1CCC3(CC1)OCCO3)c(C)n2Cc1ccccc1	20 nM [rising, full curve, poor fit]
O=c1c2cc(Cl)cc(Cl)c2nc(CN2CCOCC2)n1-c1ccccc1F	15800 nM [rising, single point]
Cc1ccc(N2C(=O)/C(=C/c3ccc(CN(CCC#N)S(C)(=O)=O)o3)C(=O)NC2=S)cc1C	3160 nM [falling, partial curve, poor fit]

Exported with each value named: two of the compounds above.
COc1ccc(CCNC(=O)COC(=O)Cc2ccccc2)cc1
  AC50: 10000 nM [rising, single point]
O=C(CN1CCOCC1)c1ccc2cc[nH]c2c1
  AC50: 7080 nM [falling, partial curve, poor fit]

(cont.)

Compound	AC50
CCOC(=O)C1=C(C)N(C)C2(C)CC1c1ccccc1O2 (stereo not given)	794 nM [falling, single point]
CCOC(=O)c1oc2ccccc2c1NC(=O)CN1CCN(C)CC1	12600 nM [falling, single point]
CN1CCc2nc3ccc(F)cc3c(C(N)=O)c2C1	100 nM [falling, partial curve]
CCN1C[C@]2(C)CC[C@@H](O)[C@]34[C@@H]5CC6[C@@H](OC)C[C@@](O)([C@H]5[C@@H]6O)[C@@H](C[C@@H]23)[C@H]14	31600 nM [rising, single point]
COc1cc2c(cc1OC)-c1c(O)c(OC)cc3c1[C@H](C2)N(C)CC3	20000 nM [falling, partial curve]
O=C(C1CCN(CC2CCCCC2)CC1)N1CCCC1	158 nM [rising, full curve, poor fit]
CNCCc1ccc(O)c(O)c1	25.1 nM [falling, full curve, poor fit]
COC(=O)C(C#N)C(c1cccnc1)c1c(C)[nH][nH]c1=O (stereo not given)	6310 nM [rising, single point]
CCOc1ccccc1CN(CCc1ccc2c(c1)OCO2)Cc1ccc(CC)cc1	50.1 nM [falling, full curve, poor fit]
COc1ccc(NC(=O)c2ccc(COCC(F)(F)C(F)F)cc2)cc1	3980 nM [falling, full curve]
CC(C)c1c(CN(C)[C@@H](C)Cc2ccccc2)n(C)n(-c2ccccc2)c1=O	200 nM [falling, full curve, poor fit]
CCN(CC)C(=O)CN1CCN(c2ccccc2F)CC1	63.1 nM [rising, full curve, poor fit]
CN(C)P(=O)(C(Cl)=C(N1CCCCC1)N1CCCCC1)N(C)C	6310 nM [rising, single point]
COc1cc(C(=O)NC2CC3CCCC(C2)N3CC(=O)Nc2ccccc2)cc(OC)c1OC (stereo not given)	2820 nM [falling, single point]
CC(C)NC[C@H](O)c1ccc(N)c(C#N)c1	31600 nM [falling, single point]
O=C(Nc1ccc2oc(-c3cccnc3)nc2c1)c1ccc(-c2cccc(Cl)c2)o1	31600 nM [rising, single point]
CN(C)C1C(=O)C(C(N)=O)=C(O)[C@@]2(O)C(=O)C3=C(O)c4c(O)cccc4[C@@](C)(O)C3C[C@@H]12 (stereo not given in full)	20000 nM [rising, partial curve, poor fit]
CC1(C)CC(=O)C2=C(C1)NC(=O)C21C(C(=O)OC(C)(C)C)=C(N)Oc2ccc(Br)cc21 (stereo not given)	1580 nM [falling, partial curve]
CN1Cc2c(ccc3c2OCO3)[C@@H]2[C@@H](O)Cc3cc4c(cc3[C@@H]21)OCO4	15800 nM [falling, single point]
O=c1[nH]c(=O)n(CCC2=CCCCC2)c(O)c1C=NCCCn1ccnc1	79.4 nM [rising, full curve, poor fit]
CCOc1ccc(OCC)c(NC(=O)CN2CCN(c3ccc(C)cc3C)CC2)c1	50.1 nM [falling, full curve]
